From PMC2364237
No constants are given. Whether binding was seen depends on the method and setting. Binding seen in cells or lysates may run through a third protein. Some binding calls cover weakened binding; strength is not graded here.

Molecular target: T1, p13suc1 conjugated to agarose beads (UniProt P08463)
T1 sequence: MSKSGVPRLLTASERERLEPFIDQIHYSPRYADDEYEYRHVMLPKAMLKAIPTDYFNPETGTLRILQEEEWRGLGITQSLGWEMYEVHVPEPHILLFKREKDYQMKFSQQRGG
Assay: pull-down; p13suc1-agarose incubated with extracts of transfected 293T cells; blotted with anti-FRS2; only the target purified

B1: SNT1/FRS2 adaptor protein (endogenous) (protein, UniProt Q8WU20 1-508)
chain: MGSCCSCPDKDTVPDNHRNKFKVINVDDDGNELGSGIMELTDTELILYTRKRDSVKWHYLCLRRYGYDSNLFSFESGRRCQTGQGIFAFKCARAEELFNMLQEIMQNNSINVVEEPVVERNNHQTELEVPRTPRTPTTPGFAAQNLPNGYPRYPSFGDASSHPSSRHPSVGSARLPSVGEESTHPLLVAEEQVHTYVNTTGVQEERKNRTSVHVPLEARVSNAESSTPKEEPSSIEDRDPQILLEPEGVKFVLGPTPVQKQLMEKEKLEQLGRDQVSGSGANNTEWDTGYDSDERRDAPSVNKLVYENINGLSIPSASGVRRGRLTSTSTSDTQNINNSAQRRTALLNYENLPSLPPVWEARKLSRDEDDNLGPKTPSLNGYHNNLDPMHNYVNTENVTVPASAHKIEYSRRRDCTPTVFNFDIRRPSLEHRQLNYIQVDLEGGSDSDNPQTPKTPTTPLPQTPTRRTELYAVIDIERTAAMSNLQKALPRDDGTSRKTRHNSTDLPM
- binding: binds
